## Primary screen of a compound library

Chains of the proteins cited; added tags and fusions are not shown. Residues count along the entry.
UniProt Q8IDJ8, 1-583: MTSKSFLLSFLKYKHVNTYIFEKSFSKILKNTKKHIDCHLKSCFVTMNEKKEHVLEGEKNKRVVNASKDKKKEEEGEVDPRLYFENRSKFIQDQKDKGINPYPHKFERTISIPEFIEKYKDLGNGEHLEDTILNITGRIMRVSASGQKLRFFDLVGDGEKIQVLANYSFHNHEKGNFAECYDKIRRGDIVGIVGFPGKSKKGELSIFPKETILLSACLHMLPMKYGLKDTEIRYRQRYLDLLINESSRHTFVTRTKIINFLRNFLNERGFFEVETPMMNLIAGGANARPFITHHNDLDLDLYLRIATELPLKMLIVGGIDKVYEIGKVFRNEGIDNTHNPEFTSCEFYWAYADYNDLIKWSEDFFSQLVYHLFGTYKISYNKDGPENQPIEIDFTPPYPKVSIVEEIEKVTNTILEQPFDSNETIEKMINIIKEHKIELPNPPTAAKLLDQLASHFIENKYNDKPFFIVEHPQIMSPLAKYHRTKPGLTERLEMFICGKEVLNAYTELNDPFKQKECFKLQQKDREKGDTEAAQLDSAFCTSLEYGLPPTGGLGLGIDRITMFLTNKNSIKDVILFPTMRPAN
UniProt Q4DA54, 1-478: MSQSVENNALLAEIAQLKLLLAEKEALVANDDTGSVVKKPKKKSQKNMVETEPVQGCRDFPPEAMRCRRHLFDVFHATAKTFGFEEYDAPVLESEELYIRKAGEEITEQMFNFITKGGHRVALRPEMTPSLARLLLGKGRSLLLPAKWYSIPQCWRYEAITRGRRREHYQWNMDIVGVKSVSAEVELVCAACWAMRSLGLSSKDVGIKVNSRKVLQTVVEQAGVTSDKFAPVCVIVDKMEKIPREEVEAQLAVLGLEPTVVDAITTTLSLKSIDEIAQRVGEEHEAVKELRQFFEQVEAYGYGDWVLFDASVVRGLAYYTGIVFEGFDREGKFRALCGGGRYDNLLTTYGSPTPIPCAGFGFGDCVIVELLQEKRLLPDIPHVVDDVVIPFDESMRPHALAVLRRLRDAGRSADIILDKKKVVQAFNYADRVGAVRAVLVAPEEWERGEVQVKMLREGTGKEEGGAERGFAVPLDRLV
UniProt I6X8D2, whole entry: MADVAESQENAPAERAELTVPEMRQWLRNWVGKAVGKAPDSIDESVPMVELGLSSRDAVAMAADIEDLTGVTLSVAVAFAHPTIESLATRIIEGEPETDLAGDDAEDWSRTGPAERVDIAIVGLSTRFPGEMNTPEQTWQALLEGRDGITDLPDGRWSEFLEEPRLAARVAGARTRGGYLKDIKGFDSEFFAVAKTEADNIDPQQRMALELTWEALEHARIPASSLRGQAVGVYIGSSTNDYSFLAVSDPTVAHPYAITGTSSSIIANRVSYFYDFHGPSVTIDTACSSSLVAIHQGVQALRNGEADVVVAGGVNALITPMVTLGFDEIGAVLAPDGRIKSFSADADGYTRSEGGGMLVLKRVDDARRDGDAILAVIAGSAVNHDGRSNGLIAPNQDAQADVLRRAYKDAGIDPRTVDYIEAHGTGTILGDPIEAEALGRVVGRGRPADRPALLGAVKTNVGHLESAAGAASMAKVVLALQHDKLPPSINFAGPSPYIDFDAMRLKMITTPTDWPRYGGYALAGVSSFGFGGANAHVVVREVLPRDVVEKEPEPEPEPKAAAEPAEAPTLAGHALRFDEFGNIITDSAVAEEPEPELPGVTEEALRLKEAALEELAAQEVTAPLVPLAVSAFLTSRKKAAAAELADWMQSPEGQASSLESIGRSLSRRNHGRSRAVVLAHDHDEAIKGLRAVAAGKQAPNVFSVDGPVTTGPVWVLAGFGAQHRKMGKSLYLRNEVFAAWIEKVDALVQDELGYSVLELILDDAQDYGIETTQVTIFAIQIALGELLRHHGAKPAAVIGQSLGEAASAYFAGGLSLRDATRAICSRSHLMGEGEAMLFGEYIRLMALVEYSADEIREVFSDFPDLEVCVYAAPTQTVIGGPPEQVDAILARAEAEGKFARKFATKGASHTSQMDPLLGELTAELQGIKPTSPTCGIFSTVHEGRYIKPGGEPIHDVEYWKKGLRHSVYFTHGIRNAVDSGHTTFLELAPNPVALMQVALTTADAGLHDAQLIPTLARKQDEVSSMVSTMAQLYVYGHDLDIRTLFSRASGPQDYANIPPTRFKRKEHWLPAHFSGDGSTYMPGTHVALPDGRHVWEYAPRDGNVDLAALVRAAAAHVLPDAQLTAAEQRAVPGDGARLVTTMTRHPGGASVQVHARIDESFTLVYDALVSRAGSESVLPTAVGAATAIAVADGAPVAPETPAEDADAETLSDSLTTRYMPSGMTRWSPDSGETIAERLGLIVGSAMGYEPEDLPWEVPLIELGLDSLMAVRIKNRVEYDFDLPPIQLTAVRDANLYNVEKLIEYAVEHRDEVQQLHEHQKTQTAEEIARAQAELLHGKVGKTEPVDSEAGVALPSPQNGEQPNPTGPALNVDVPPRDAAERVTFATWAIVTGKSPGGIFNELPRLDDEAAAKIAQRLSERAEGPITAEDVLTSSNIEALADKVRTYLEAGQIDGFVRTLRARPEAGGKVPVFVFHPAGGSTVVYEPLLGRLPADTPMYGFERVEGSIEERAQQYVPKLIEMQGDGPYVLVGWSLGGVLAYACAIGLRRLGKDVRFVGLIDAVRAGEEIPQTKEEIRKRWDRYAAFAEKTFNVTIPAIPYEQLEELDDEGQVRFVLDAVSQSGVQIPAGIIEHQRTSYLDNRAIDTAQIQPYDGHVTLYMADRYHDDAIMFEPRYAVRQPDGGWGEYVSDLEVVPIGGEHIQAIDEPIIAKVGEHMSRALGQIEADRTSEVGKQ

PfKRS1: 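Enzyme assay of the cytosolic lysyl-tRNA synthetase in 384-well plates, read by luminescence. Target: Lysine-tRNA ligase, Plasmodium falciparum 3D7 (UniProt Q8IDJ8). Tested at 30 µM. Higher reads as stronger inhibition, judged from the few compounds that gave an IC50. About 69,000 compounds were tested under these conditions; 0.071% (about 49) showed 50% or more at least once.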
TcHisRS: 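Histidine-tRNA ligase, Trypanosoma cruzi CL Brener (UniProt Q4DA54). Enzyme assay of histidyl-tRNA synthetase; the read-out is not stated. Concentration: 30 µM. Higher reads as stronger inhibition (inferred: compounds with an IC50 in retests scored well above the rest). About 69,000 compounds were tested under these conditions; 0.045% (about 31) showed 50% or more at least once.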
Leishmania in macrophages: 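Cell assay of Leishmania donovani living inside macrophages; the read-out is not stated. Concentration: 30 µM. The record gives no direction; compounds that gave an IC50 in retests scored well above the rest, so higher reads as stronger inhibition. Of about 69,000 compounds tested this way, about 1,000 (1.5%) reached 50% or more in at least one test.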
Pks13 thioesterase: 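Enzyme assay of the thioesterase domain of polyketide synthase 13; the read-out is not stated. Target: Polyketide synthase Pks13, Mycobacterium tuberculosis (UniProt I6X8D2). Tested at 30 µM. Higher reads as stronger inhibition (inferred from which compounds were picked for retests). Size under these conditions: about 67,000 compounds, about 300 of them at 50% or above in at least one test.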

Each number is a percent effect as filed.
How 0% and 100% were set is not recorded. Most values in the screen are low, and negative values occur.
This is an unselected part of the compounds tested.
Two or more numbers in one place are separate tests of the same structure; such repeats can differ widely.

* COCCN1CCC12CCN(c1ncccn1)C2.O=C(O)C(F)(F)F (stereo not given) | Leishmania in macrophages: 19.52% & 6.614%
* COc1ccc(Cc2noc(-c3ccc(NC(C)CO)nc3)n2)cc1 (stereo not given) | PfKRS1: -2.651%; TcHisRS: 0.9804%; Leishmania in macrophages: 3.919%; Pks13 thioesterase: -20.05%
* COc1ccc(C)cc1-n1cnnc1C1CCCN(C)C1 (stereo not given) | PfKRS1: -1.099%; TcHisRS: 5.556%; Leishmania in macrophages: 33.51%; Pks13 thioesterase: -18.85%
* CC(C)c1ncc2c(n1)CN(Cc1cccc(OCC(N)=O)c1)CC2 | PfKRS1: 7.385%; TcHisRS: 6.464%; Leishmania in macrophages: -5.706%; Pks13 thioesterase: 1.227%
* CCn1cc(NC(=O)NCc2ccc3c(c2)OCO3)cn1 | PfKRS1: 1.139%; TcHisRS: 3.704%; Leishmania in macrophages: 18.35%; Pks13 thioesterase: -15.68%
* CN(C)CCN1CCc2c(nnn2C)C1COCc1ccccc1 (stereo not given) | PfKRS1: -6.987%; TcHisRS: 0%; Pks13 thioesterase: -43.58%
* CCC(O)CN1CCN(C(=O)c2ccn(C)c(=O)c2)CC1 (stereo not given) | PfKRS1: -1.446%; TcHisRS: 2.254%; Leishmania in macrophages: 25.79%; Pks13 thioesterase: -4.735%
* CC(=O)NCCCn1ncc2c(C)cccc21 | PfKRS1: 0.8685%; TcHisRS: 2.609%; Leishmania in macrophages: -51.61%; Pks13 thioesterase: -17.75%
* COc1nccc(C(F)(F)F)c1C(=O)O | PfKRS1: 0.04737%; TcHisRS: 7.292%; Leishmania in macrophages: 4.704%; Pks13 thioesterase: -17.48%
* CN(C)S(=O)(=O)N1CCC(c2cccc(Cc3ccccc3Cl)n2)CC1 | PfKRS1: -1.583%; TcHisRS: 9.89%; Leishmania in macrophages: 17.92% & -3.343%; Pks13 thioesterase: -26.94%
* CCOCC1CN(C(=O)c2ccoc2C)Cc2cnn(C)c21 (stereo not given) | PfKRS1: -0.04718%; TcHisRS: 7.619%; Leishmania in macrophages: -4.213%; Pks13 thioesterase: -25.69%
* CCOc1ccc2[nH]c(=O)c(CN3CCN(S(N)(=O)=O)CC3)cc2c1 | PfKRS1: 11.46%; TcHisRS: 3.139%; Leishmania in macrophages: 13.52%; Pks13 thioesterase: 7.323%
* Cc1n[nH]cc1CNC(C)c1cccc(N2CCCC2=O)c1 (stereo not given) | PfKRS1: 2.626%; TcHisRS: 3.448%; Pks13 thioesterase: -9.004%
* CCN1CCC2(COCc3cnc(-c4cccnc4)nc32)C1 (stereo not given) | PfKRS1: 4.017%; TcHisRS: 1.657%; Leishmania in macrophages: -4.476%; Pks13 thioesterase: -38.97%
* Cc1nc(C(=O)NCc2ccc(N3CCNC(=O)C3)c(F)c2)cs1 | PfKRS1: 1.029%; TcHisRS: 6.186%; Leishmania in macrophages: 6.129%; Pks13 thioesterase: -3.224%
* CCc1noc(C)c1C(=O)N1CCCC1Cn1cc(C)cn1 (stereo not given) | PfKRS1: 2.657%; TcHisRS: 1.515%; Leishmania in macrophages: 3.248%; Pks13 thioesterase: -3.561%
* CC(NC(=O)NCCc1ccc(Cl)s1)c1ccccn1 (stereo not given) | PfKRS1: 1.661%; TcHisRS: 5.983%; Leishmania in macrophages: 7.631%; Pks13 thioesterase: -7.706%
* [H][C@]12C[C@@H](C(=O)N(C)Cc3ccccn3)CO[C@@]1([H])CCN(CCOC)C2 | Leishmania in macrophages: 34.37%

Repeated from the top, 2 entries:

- COCCN1CCC12CCN(c1ncccn1)C2.O=C(O)C(F)(F)F (stereo not given) | Leishmania in macrophages: 19.52% & 6.614%
- COc1ccc(Cc2noc(-c3ccc(NC(C)CO)nc3)n2)cc1 (stereo not given) | PfKRS1: -2.651%; TcHisRS: 0.9804%; Leishmania in macrophages: 3.919%; Pks13 thioesterase: -20.05%

From ChEMBL document CHEMBL3988442, “University of Dundee, Small-Polar-MMV Screening Library” (2021).